Counter-ions that a name gives are not always drawn. At least one structure is not confirmed: it was looked up by name or label, or the drawing left a doubt.
Legend:
[1] = Comparison of metal salts or conjugates hydro-acupuncture (water-carrier) preparation: pH value and clarity; assay type: physicochemical; details: 2.0 mg/ml in water, as dissolved
Protocol: Proper amount of different rhein or rhein-containing effective part metal salts or conjugates were put into a 10 ml volumetric flask, added with water, shaken and dissolved for constant volume, and then a water-carrier preparation was obtained. Rhein or rhein-containing effective part sodium salts or sylvan preparation are adjusted to the original pH with diluted hydrochloric acid and the results were shown in Table 4.

[2] = test system: rats; assay: Formation of cotton ball granuloma in rats (Example 59 Test 2); assay type: in vivo; details: ig, large dose and low dose groups, p<0.01
Protocol: Rats were randomly divided into five groups (model control group, indomethacin group, rhein glucosamine large dose group and low dose group and rhein sodium group). Each group included 10 rats, and built models according to the method in the literature [Xu Shuyun, Methodology in Pharmacological Experiment (the 3rd version): 918]. The rats were administered by medicines from the day when starting the operation. […] The rats were killed in two weeks, and tests were performed according to the methods in the literature, the net weight of granulation was calculated, and t test was used for the intergroup comparison.

[3] = test system: rats; assay: Intestinal adhesion in rats; assay type: in vivo; details: large dose and low dose groups, p<0.05
Protocol: Rats were fasted for 12 h and models were built according to the methods in the literature [Xu Shuyun, Methodology in Pharmacological Experiment (the 3rd version): 1335]. The rats were randomly divided into five groups, namely, model control group, dexamethasone group, rhein sodium group, rhein glucosamine large dose group and low dose group. Each group included 12 rats. […] The rats of the model group were administered with the same volume of NS, while the rats of the positive control group were administered with dexamethasone, administered once every two days, dose: 10 mg/kg. The administration volume was the same as the treatment group. The rats were killed on the 7th day and carried on laparotomy. Adhesion degree was classified and scored respectively. The classification and score of the observed index-adhesion degree can refer to the five-grade classification method prepared by Nair, and determine the classification standard, see Schedule 13. Intestinal adhesion classification adopts Ridit analysis. The test results are as follows (Table 14): […]

With `O=C(O)c1cc(O)c2c(c1)C(=O)c1cccc(O)c1C2=O` [Rhein sodium salt, rhein sodium salt] the PH value [1] was 9-10, the clarity [1] was “clear” and the “inhibition of the formation of cotton ball granuloma compared with the model group” value [2] was “significant effect on the inhibition”. The “abdominal adhesion ratings compared with the control group” value [3] was “statistical significances”.
